## Percent effect of library compounds

T. brucei: 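Whole-parasite assay of Trypanosoma brucei over 72 hours; the read-out is not stated. Compounds at 30 µM. The record gives no direction; compounds that gave an IC50 in retests scored well above the rest, so higher reads as stronger inhibition. Values scatter widely below zero; nearly all retest evidence comes from the higher of the two concentrations used. About 64,000 compounds were tested under these conditions; 1.5% (about 940) showed 50% or more at least once.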
Toxoplasma: 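Assay of Toxoplasma gondii numbers, read through their beta-galactosidase reporter with a colour substrate. Compounds at 10 µM. Higher reads as fewer parasites (inferred from which compounds were picked for retests). Of about 67,000 compounds tested this way, about 260 (0.38%) reached 50% or more in at least one test.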

Values are the deposited “Percent Effect”, in %. How 0% and 100% were set is not recorded. Most values in the screen are low, and negative values occur. Compounds were drawn at random from those tested, without regard to their results.

COc1cccc2c(=O)n(Cc3cc(C4CC4)[nH]n3)cnc12 gave T. brucei: -23.32%; Toxoplasma: 23.58%.
Cc1cc(C)c2c(N3CCN(C(=O)N(C)C)CC3)ncnc2n1 gave T. brucei: -10.57%; Toxoplasma: 10.66%.
O=C(O)C(F)(F)F.[H][C@@]12OCCN(CC3CCOCC3)[C@@]1([H])CC[C@H]2OCC1CCOCC1 gave T. brucei: -21.16%; Toxoplasma: -1.377%.
CC(C)(C)OCC1CN(CC2CC2)S(=O)(=O)c2cnccc2O1 (stereo not shown) gave T. brucei: -4.212%; Toxoplasma: 5.228%.
CCN(CC)Cc1cc(=O)n2c(n1)CN(C(=O)c1ccnnc1)CCC2.O=C(O)C(F)(F)F gave T. brucei: -50.55%; Toxoplasma: 1.566%.
Cc1cc(C)nc(CN(C)C(=O)C(c2cccnc2)N2CCCC2)c1 (stereo not shown) gave Toxoplasma: 7.939%.
CC(C)C[C@H](N)C(=O)N1CCSc2ccccc2C1.Cl gave T. brucei: 11.53%; Toxoplasma: 24.07%.
CNc1cccc(C2CCCN(C(=O)c3cnccn3)C2)n1 (stereo not shown) gave T. brucei: 10.05%; Toxoplasma: 12.04%.
Cc1nc(CN2CCCN(C(=O)c3sccc3C#N)CC2)cs1 gave Toxoplasma: -10.54%.
CCOC(=O)N1CCC2(CC1)N=C(CCC(C)C)NC2=O gave T. brucei: -18.16%; Toxoplasma: -1.46%.
CCc1cc(N(C)Cc2nonc2C)nc(N2CCOCC2)n1 gave T. brucei: -29.46%; Toxoplasma: -3.461%.
NC(=O)c1nc(-c2ccc(Cl)cc2Cl)oc1N gave T. brucei: -15.5%; Toxoplasma: 3.204%.
[H][C@@]12OCCN(C(=O)c3ccccc3F)[C@@]1([H])CC[C@H]2OCCN(C)C gave T. brucei: -22.79%; Toxoplasma: 23.25%.
C[C@@H]1CN(c2ccc(Cl)cn2)C[C@]1(C)O gave T. brucei: -28.32%; Toxoplasma: 21.39%.
O=C(O)C(F)(F)F.[H][C@]12CCN(c3cc(OC)ncn3)[C@@]1([H])C[C@@H](C(=O)N(C)C)O2 gave T. brucei: -9.278%; Toxoplasma: 6.365%.
Cc1cc(=O)[nH]c(=O)n1Cc1ccccc1 gave T. brucei: -40.53%; Toxoplasma: 2.697%.
CC[S+]([O-])CCc1nc(CC(C)C)nn1-c1ccc2c(c1)OCCO2 (stereo not shown) gave T. brucei: -3.058%; Toxoplasma: -5.699%.
CC(Cn1cccn1)NC(=O)Nc1nncs1 (stereo not shown) gave Toxoplasma: 15.6%.
Cc1noc(OCCOc2ccc(C#N)cc2)n1 gave T. brucei: -5.321%; Toxoplasma: 0.1588%.
Cc1cc(CCC(=O)N2CCCC2)nc(C2CCCN2)n1 (stereo not shown) gave T. brucei: -2.061%; Toxoplasma: -1.196%.
CCCc1ccc(S(=O)(=O)NC(=O)CCc2cscn2)cc1 gave Toxoplasma: 6.968%.
Cc1cccc(C)c1OC1CN(Cc2cnc(N3CCOCC3)nc2)C1 gave T. brucei: 26.72%; Toxoplasma: -6.76%.
CCCN(CCO)C(=O)C1CCC(=O)N(CCc2ccc(Cl)cc2)C1 (stereo not shown) gave T. brucei: -17.29%; Toxoplasma: -6.746%.
COC(=O)c1cc(CN2CCC(c3noc(C)n3)CC2)c(C)s1 gave T. brucei: -3.36%; Toxoplasma: 0.5445%.
CN1CCN(C)C(CNc2c(C#N)cnc3ccc(Cl)cc23)C1 (stereo not shown) gave T. brucei: -31.27%; Toxoplasma: 7.803%.
c1cc(-c2ccn(CCN3CCCC3)n2)cc(-c2nccs2)c1 gave T. brucei: 6.806%; Toxoplasma: -1.913%.
COCCNc1ccc(CNCc2cnc3nc(C)cc(C)n23)cc1 gave T. brucei: -23.52%; Toxoplasma: -6.685%.
Cn1cnc2c1CCN(Cc1c(Cl)ccc3cccnc13)C2 gave T. brucei: 10.23%; Toxoplasma: -0.6732%.
Fc1cc(CNCc2ccc3c(c2)CCO3)ccc1N1CCOCC1 gave T. brucei: -6.27%; Toxoplasma: 0.4616%.
[H][C@]12CC[C@](O)(c3cccc(OC)c3)[C@@]1([H])CN(C(=O)c1cn(C)nc1C)C2 gave T. brucei: -10.5%; Toxoplasma: 6.024%.
CC(c1nc(C(C)(C)C)no1)S(=O)(=O)CC(=O)N(C)C (stereo not shown) gave T. brucei: 2.241%; Toxoplasma: 21.56%.
O=C(NCCO)c1sc2ncccc2c1C1CN(C2CCCC2)CCO1 (stereo not shown) gave T. brucei: 1.56%; Toxoplasma: -14.93%.
COCc1ncn2c1CN(C(=O)c1ccc3ccccc3n1)CC2.O=C(O)C(F)(F)F gave T. brucei: -42.17%; Toxoplasma: 20.35%.
CN(C)c1ccc(NC(=O)N2CCc3sccc3C2)cn1 gave T. brucei: -11.01%; Toxoplasma: -1.097%.
O=C(COc1ccccc1F)NCCC(O)c1ccoc1 (stereo not shown) gave T. brucei: 11.21%; Toxoplasma: -5.653%.
COc1cc(C)ccc1OCc1nc(C(=O)N2CCCC2)co1 gave Toxoplasma: -24.5%.
NC(=O)C(NC1CCN(CC2CCCCC2)CC1)c1ccccc1 (stereo not shown) gave T. brucei: -54.75%; Toxoplasma: 0.2875%.
O=C(O)C(F)(F)F.O=C(O)C(F)(F)F.[H][C@@]12C[C@@H](Oc3cncnc3)CN1CCN(c1ncc(F)cn1)C2 gave T. brucei: -22.2%; Toxoplasma: 10.56%.
COC(=O)c1ccc(N2CCN(C(=O)CCCc3cn[nH]c3)CC2)cc1 gave T. brucei: -19.06%; Toxoplasma: -8.292%.
CCOCc1cnc2n1CCN(Cc1nc(C)cs1)C2C.O=C(O)C(F)(F)F (stereo not shown) gave T. brucei: -5.198%; Toxoplasma: -0.7559%.
O=c1[nH]c(NC2CCCC2)nc2nccc(-c3ccsc3)c12 gave T. brucei: 12.03%; Toxoplasma: 9.407%.
CN(C)C(=O)C1CN(Cc2ccc(C#N)cc2F)c2ccccc2O1 (stereo not shown) gave T. brucei: -14.39%; Toxoplasma: 9.487%.
CC(C)N1C(=O)CC(N2CCN(c3ccc(F)cc3)CC2)C1=O (stereo not shown) gave T. brucei: -28.81%; Toxoplasma: 8.957%.
CCOCc1ccccc1NC(=O)NCC(c1cnn(C)c1)N(C)C (stereo not shown) gave T. brucei: -1.822%; Toxoplasma: -4.682%.
COc1ccc(C2SCC(=O)Nc3n[nH]cc32)c(OC)c1OC (stereo not shown) gave T. brucei: -21.04%; Toxoplasma: 17.37%.

Some entries from above, unchanged:

- CC(C)(C)OCC1CN(CC2CC2)S(=O)(=O)c2cnccc2O1 (stereo not shown) | T. brucei: -4.212%; Toxoplasma: 5.228%
- CCOC(=O)N1CCC2(CC1)N=C(CCC(C)C)NC2=O | T. brucei: -18.16%; Toxoplasma: -1.46%
- CC[S+]([O-])CCc1nc(CC(C)C)nn1-c1ccc2c(c1)OCCO2 (stereo not shown) | T. brucei: -3.058%; Toxoplasma: -5.699%
- CC(Cn1cccn1)NC(=O)Nc1nncs1 (stereo not shown) | Toxoplasma: 15.6%

Measurements from “University of Dundee, Small-Polar-MMV Screening Library” (2021), ChEMBL document CHEMBL3988442.